Library screen at single concentrations

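Phenotypic screen: M. tuberculosis growth, cholesterol and DPPC medium, 4 days; the read-out is not stated. Tested at 50 µM. The record gives no direction; compounds that gave an IC50 in retests scored well above the rest, so higher reads as more growth inhibition. About 69,000 compounds were tested under these conditions; 0.54% (about 370) showed 50% or more at least once.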

Values are the deposited “Percent Effect”, in %. The controls that fix the scale are not given in the record; negative values are as filed. This is an unselected part of the compounds tested. Two or more numbers in one place are separate tests of the same structure; such repeats can differ widely.

SMILES,percent effect
CCc1ccc(S(=O)(=O)N2CC3(COC(C)(C)OC3)C2)s1,-7.58%
O=C(c1c[nH]c(=O)[nH]1)N1CCCC2(CCC(=O)N(C3CCCC3)C2)C1 (centres unmarked),-8.819%
Cc1ccnc(C2CN(c3ccnc(C)n3)C2)n1,1.215% and -18.6%
CCOCC1c2c(cnn2C)CCN1C(=O)c1cc(C)on1.O=C(O)C(F)(F)F (centres unmarked),-4.898%
Cc1cc(C)cc(OCCCn2nc3ccccn3c2=O)c1,23.62%
O=C(NCCn1cnnc1C1CC1)c1c(O)cc(F)cc1F,-12.2%
COC(=O)c1ccc(N2CCN(C(=O)c3ccco3)C(C)C2)cc1 (centres unmarked),9.23%
CN(Cc1cccnc1)C1CC2(CCN(C(=O)c3cnccn3)CC2)C1,-13.32%
CN(CCc1cn[nH]c1)C(=O)C1CC(=O)N(Cc2ccccn2)C1 (centres unmarked),-0.3776%
CCc1nnc2ccc(NCC3(O)CCOCC3)nn12,16.58%
CCCN(C)CC1CCN(c2ncc(Br)cn2)C1 (centres unmarked),-9.34%
CN1CCCC(CCCc2cccnc2)(C(N)=O)C1 (centres unmarked),19.12%
CN1CCCC(CNC(=O)N(C)Cc2ccc(Cl)c(F)c2)C1 (centres unmarked),-23.87%
Cc1nccc(C(=O)N2CCCC(c3cc(C(F)(F)F)[nH]n3)C2)n1 (centres unmarked),17.7%
CN(Cc1nnc(C2CC2)n1C)C1CCN(Cc2ccon2)C1 (centres unmarked),-33.62%
CC1CN(C(=O)NCCc2nc(C(C)C)no2)CCO1 (centres unmarked),-2.759%
Cc1occc1CNC(=O)Nc1ccc2nc(N3CCOCC3)oc2c1,-3.946%
Cc1c(Br)cccc1NC(=O)N(C)CCO,14.06%
CC(=O)c1c(C)cc(C)c(CS(=O)(=O)c2nccn2C)c1C,1.165%
Cc1ccc(N2N=C(C(N)=O)S(=O)(=O)c3cccnc32)cc1,87.26%
COc1cc2c(cc1CCC(=O)O)CCC2,-1.674% and -16.8%
Cc1nn(C)c(C)c1CN1CCN(CC2(O)CCCN(C)C2)CC1 (centres unmarked),-14.21%
CCCn1ncc(C(=O)N(Cc2cccnc2)C[C@@H]2CCC(=O)N2)c1C,2.988%
[H][C@@]12CC(=O)N(CC)[C@@]1([H])CCN2S(=O)(=O)c1ccc(OC)cc1,-13.97%
Cc1nc(C)c(C(=O)NCCNC(=O)Cc2ccc(F)cc2)s1,-16.12%
NC(=O)C1CCN(Cc2csc(-c3ncccn3)n2)CC1,6.046%
COCC(=O)N1CCC2(CC1)CC(OC)c1ccc(F)cc12 (centres unmarked),0.2285%
CC(C)CN1CCC(NC(=O)NCCC(=O)NCc2ccccc2)CC1,-16.81%
CCOC(=O)N1CCN(C(=O)c2cc(OCC)c3ccoc3c2)CC1,-24.14%
Cc1cnn(C2CCCN(C(=O)c3c(C)oc(C)c3C)C2)c1 (centres unmarked),-10.65%
O=C([C@H]1CCCO1)N1CCN(Cc2cccnc2)c2ncccc2C1,-9.301%
CC(Cn1cccn1)NCc1nc(-c2cccs2)no1 (centres unmarked),17.77%
O=C([C@H]1CCCO1)N1CC[C@H](O)[C@@H]1Cc1cccnc1,15.38%
O=C(O)[C@@H]1CN(C(=O)Cc2ccccc2Cl)C[C@H]1C1CC1,-1.267%
Cc1nc(NC(=O)NC(CS(C)(=O)=O)c2ccccc2)sc1C (centres unmarked),20.6%
CC(c1ccc(S(C)(=O)=O)cc1)N(C)C(=O)c1ccccc1I (centres unmarked),-8.514%
COCC1CC2(CCNCC2)CN1c1ncccn1 (centres unmarked),-17.95%
CCn1c(C2CCCN(Cc3cc(F)ccc3OC)C2)nn(C)c1=O (centres unmarked),10.09%
O=C(CN1CCCc2cc(F)cc(F)c21)Nc1ccc(Br)cn1,16.85% and 32.49%
CN1N=C(C(=O)N(Cc2ccco2)C2CC2)CCC1=O,4.706%
CCOC(=O)NCCC(=O)NCc1ccnc(Oc2ccc(F)cc2)c1,-17.74%
O=C1NCCCCC1Sc1ccccc1F (centres unmarked),-24.81%
CCOCCN1CCN(c2ccc(C#N)cn2)CC1,-22.07%
CN(C)c1ncccc1NC(=O)COCC1CC1,-4.973%
COc1ccccc1OC1CN(C(=O)C2CNCC(=O)N2)C1 (centres unmarked),-2.568%
O=C(Cn1nc(-c2ccc(F)cc2)oc1=O)NCc1ccccc1F,13.44%
COCCOc1ccc(-c2noc([C@@H]3CCCN3C3CCC3)n2)cn1,-29.56%
CCC(CC)C(=O)N1CCN(Cc2nc3ccccc3c(=O)[nH]2)CC1,-0.4027%
CCc1nc(C(=O)N2CCN(C)CC2)nn1-c1ccccc1Cl,-53.77%
COc1ccc(C(=O)N2CCN(C(=O)c3csc(C(C)C)n3)CC2)cc1,-16.07%
CN1CCN(Cc2cnc3n2CCN(C(=O)c2cnccn2)C3)CC1,7.249%
Cc1cc(C)n(CC2CCCN2C(=O)c2ccc(NC3CC3)nc2)n1 (centres unmarked),-36.99%
Nc1nc2c(s1)C(c1c(F)cccc1Cl)CC(=O)N2 (centres unmarked),-9.479%
COc1cccc(CCNC(=O)CN2CCCC2c2noc(C)n2)c1 (centres unmarked),-24.84%
CCS(=O)(=O)NCCCNCc1c(C)nn(C)c1N(C)C,-25.69%
COc1cc(C2(C(=O)N3CCN(CC(C)O)CC3)CC2)ccc1C (centres unmarked),4.001%
O=C(CC1CC2(CCN(CC3CC3)CC2)Oc2ccccc21)NC1CC1.O=C(O)C(F)(F)F (centres unmarked),-3.882%
COc1ccc(OC)c(Sc2ncccc2C(=O)NCCSC)c1,-13.59%
O=C(c1ccc(C(F)(F)F)cc1)C1CCCN(C(=O)Cn2cnnn2)C1 (centres unmarked),4.668%
CC(C)c1cc(NC(=O)CN2CCc3c(nc(C(C)C)n3C)C2)on1,-12.27%
Cc1cnc(N2CCC3(CC2)CC(NS(C)(=O)=O)CO3)nc1 (centres unmarked),-6.438%
CC(C)c1ccc(OCCC(=O)N2CCC(CC(N)=O)CC2)cc1,1.611%
[H][C@]12CC[C@]([H])(CN(Cc3cccnc3)C1)N(C(=O)CSc1nncn1C)C2,-1.491%
Cc1cc2ccncc2n1CC1(O)CCN(C(=O)c2ccccn2)CC1,13.43%
CN(C)C(=O)Cc1ccc(-c2cccc3c2CCNC3)cc1,0.251%
O=C(NCC1CC1)Nc1cnc2cc(Cl)ccc2c1O,-15.88%
[H][C@@]12CS(=O)(=O)C[C@]1([H])N(C(=O)c1cc(C(C)C)on1)CCN2CC=C(C)C,-13.02%
C1CCN(CCN2CCCCC2C2OCCO2)CC1 (centres unmarked),-8.936%
CCCn1nccc1S(=O)(=O)N1CCC2(CCCN(C(C)C)C2=O)C1 (centres unmarked),-9.982%
O=C(Cc1ccccn1)N1CCC2(CC1)[C@H](O)C[C@@H]2O,2.92%
COc1ncccc1CNc1cc(N2CCCC2CO)ncn1 (centres unmarked),8.996%
CCN(CCO)Cc1ccc(Br)c2cccnc12,10.36%
Cc1noc(NC(=O)c2ccc(Br)o2)n1,-11.07%
N[C@H]1CN(CCCOc2ccccc2)C[C@@H]1C1CC1,8.451%
Cc1cc(C)nc(NCCC(=O)Nc2ccc(Cn3cncn3)cc2)n1,-13.84%
Cn1cnc(S(=O)(=O)N2CC3(CCN(Cc4ccncc4)C3)C2)c1.O=C(O)C(F)(F)F.O=C(O)C(F)(F)F.O=C(O)C(F)(F)F,-33.64%
Cn1cc(CN2CCC3(CC2)CC(=O)Nc2ccccc23)cn1,7.999%
NC(=O)c1cnc(-c2ccccc2)nc1CCNC(=O)CN1CCCC1,-2.138%
CC(NC(=O)c1ccnn1C)c1ccc(OCC2CC2)c(F)c1 (centres unmarked),6.197%
CCSCCC(=O)Nc1ncn(Cc2ccccc2)n1,-8.039%
Cc1nn2c(NC(=O)CSc3ncccn3)csc2nc1=O,-12.79%
CC(=O)N1CCCC1c1cccc(Cc2ccccc2F)n1 (centres unmarked),-14.84%
c1cncc(OCCNC2Cc3ccccc3C2)c1,16.67%
Cc1cc(N2CCCC(O)(CN(C)C)C2)c2cc3c(cc2n1)OCO3 (centres unmarked),-18.57%
Nc1nccnc1C1CN(C(=O)c2ccc3c(c2)OCO3)CCO1 (centres unmarked),6.215%
COc1ccc(-c2noc(CN3CCc4cncnc4C3)n2)cc1,-1.186%
[H][C@@]12CCN(Cc3ccco3)[C@]1([H])CC[C@@H](C(=O)NCc1cnc(C)cn1)O2,-2.856%
CCOCc1ncn2c1CN(S(=O)(=O)c1cccs1)CCC2,-9.864%
CC(NC(=O)CCCc1nc(C(C)(C)C)no1)c1nnc2n1CCC2 (centres unmarked),0.06012%
O=C1NCCN1C1CCN(CCOc2ccccc2Cl)CC1,16.48%
CC(Cn1cccn1)NC(=O)NCCCN1CCCCCC1=O (centres unmarked),8.707%
CCN(CC)S(=O)(=O)c1ccc2c(c1)N(Cc1ccncc1)C(=O)CS2,12.76%
CCOC1COC2(CCN(CC3CCOCC3)CC2)C1.O=C(O)C(F)(F)F (centres unmarked),5.231%

Data taken from ChEMBL document CHEMBL3988442, “University of Dundee, Small-Polar-MMV Screening Library” (2021).